The other results are listed elsewhere or left out.
Compound: CNCc1ccc(-c2[nH]c3cc(F)cc4c3c2CCNC4=O)cc1 [rucaparib]
Assay: log2 fold change, soluble protein after heating vs DMSO (PISA); higher = thermal stabilisation; K562 cells, 10 uM, 30 min; active = over 0.2 and 3.5 SD of the protein, either way, in both replicates (recomputed)
Outline: (§1)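 For each measurement, 10 μM compound was applied for 30 min to K562 cells at 2×10^6 cells/mL. Aliquots were heated for 3 min across 48°C-58°C, pooled, and extracted in PBS with 0.5% NP-40 at 4°C; the supernatant after 21,000xg for 90 min was soluble protein. This was quantified by TMTpro 16plex LC-MS/MS with channel sums equalised, and thermal stability was reported relative to control samples from duplicates, on a log2 fold-change scale.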

Amino acid sequences for entries named in this document (tags omitted). A change or cut given only in a name is not applied to a line headed by its entry.
UniProt Q96DP5: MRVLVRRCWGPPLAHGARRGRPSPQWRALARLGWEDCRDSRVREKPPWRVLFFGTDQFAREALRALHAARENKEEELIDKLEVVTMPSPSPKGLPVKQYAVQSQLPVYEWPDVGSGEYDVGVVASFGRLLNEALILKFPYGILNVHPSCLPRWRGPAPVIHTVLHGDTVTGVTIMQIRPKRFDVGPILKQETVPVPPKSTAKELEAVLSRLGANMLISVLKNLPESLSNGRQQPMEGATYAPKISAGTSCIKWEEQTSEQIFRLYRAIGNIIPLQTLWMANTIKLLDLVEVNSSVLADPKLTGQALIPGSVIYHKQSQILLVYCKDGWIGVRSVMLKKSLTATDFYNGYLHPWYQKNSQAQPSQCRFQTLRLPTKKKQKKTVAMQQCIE
UniProt Q9BQG0: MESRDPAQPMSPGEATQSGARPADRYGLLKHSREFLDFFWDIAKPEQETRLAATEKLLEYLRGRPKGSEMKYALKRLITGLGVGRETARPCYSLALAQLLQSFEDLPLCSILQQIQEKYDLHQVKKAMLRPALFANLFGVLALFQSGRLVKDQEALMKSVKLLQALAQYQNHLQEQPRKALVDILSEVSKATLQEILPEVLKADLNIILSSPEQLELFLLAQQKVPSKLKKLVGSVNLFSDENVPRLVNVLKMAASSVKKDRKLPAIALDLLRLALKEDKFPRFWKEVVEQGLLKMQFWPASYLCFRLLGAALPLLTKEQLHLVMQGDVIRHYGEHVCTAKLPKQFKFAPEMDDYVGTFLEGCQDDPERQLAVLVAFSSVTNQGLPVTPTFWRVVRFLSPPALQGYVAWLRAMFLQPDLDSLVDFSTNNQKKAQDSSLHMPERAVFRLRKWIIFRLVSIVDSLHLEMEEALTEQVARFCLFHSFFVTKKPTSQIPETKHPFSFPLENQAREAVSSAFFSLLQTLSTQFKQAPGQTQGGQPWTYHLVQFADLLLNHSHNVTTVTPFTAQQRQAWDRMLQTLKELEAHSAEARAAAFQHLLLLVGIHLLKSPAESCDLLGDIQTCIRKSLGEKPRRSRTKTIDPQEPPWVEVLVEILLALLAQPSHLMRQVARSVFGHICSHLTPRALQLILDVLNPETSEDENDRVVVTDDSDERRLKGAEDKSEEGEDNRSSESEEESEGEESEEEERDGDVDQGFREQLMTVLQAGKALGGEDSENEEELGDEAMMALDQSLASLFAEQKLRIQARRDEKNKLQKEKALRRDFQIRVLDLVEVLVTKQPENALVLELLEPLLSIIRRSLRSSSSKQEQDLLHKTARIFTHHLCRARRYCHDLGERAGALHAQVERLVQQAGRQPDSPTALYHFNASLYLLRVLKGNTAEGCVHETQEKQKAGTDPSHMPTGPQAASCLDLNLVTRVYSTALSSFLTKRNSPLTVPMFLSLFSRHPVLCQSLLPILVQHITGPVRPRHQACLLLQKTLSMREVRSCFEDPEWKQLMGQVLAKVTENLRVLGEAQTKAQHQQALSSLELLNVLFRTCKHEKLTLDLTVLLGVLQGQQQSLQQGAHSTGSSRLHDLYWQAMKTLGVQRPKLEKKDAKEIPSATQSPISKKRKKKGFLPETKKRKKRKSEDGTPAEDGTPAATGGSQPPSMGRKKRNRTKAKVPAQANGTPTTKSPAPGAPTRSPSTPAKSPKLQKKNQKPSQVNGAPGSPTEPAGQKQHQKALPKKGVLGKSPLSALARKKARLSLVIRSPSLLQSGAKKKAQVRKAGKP
UniProt P08590, whole entry, looked up: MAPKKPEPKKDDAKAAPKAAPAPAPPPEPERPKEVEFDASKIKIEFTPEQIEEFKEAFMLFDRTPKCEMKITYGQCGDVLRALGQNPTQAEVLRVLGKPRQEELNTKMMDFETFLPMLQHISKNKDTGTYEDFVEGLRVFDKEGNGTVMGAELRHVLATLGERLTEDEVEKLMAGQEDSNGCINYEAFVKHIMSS
UniProt Q9UGC7: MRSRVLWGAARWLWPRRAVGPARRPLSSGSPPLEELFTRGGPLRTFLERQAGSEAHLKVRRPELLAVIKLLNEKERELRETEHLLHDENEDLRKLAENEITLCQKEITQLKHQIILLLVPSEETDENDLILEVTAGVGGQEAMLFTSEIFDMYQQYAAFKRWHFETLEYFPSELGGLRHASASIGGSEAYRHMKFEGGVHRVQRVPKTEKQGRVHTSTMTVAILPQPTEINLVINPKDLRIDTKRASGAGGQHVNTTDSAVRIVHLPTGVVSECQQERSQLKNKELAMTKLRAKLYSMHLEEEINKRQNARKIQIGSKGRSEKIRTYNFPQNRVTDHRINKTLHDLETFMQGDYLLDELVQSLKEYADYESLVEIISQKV
UniProt Q93083: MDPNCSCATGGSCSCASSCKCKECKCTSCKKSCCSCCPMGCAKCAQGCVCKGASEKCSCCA
UniProt P03928: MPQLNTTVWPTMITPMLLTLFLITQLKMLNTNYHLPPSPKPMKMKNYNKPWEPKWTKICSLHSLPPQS
UniProt Q96QG7: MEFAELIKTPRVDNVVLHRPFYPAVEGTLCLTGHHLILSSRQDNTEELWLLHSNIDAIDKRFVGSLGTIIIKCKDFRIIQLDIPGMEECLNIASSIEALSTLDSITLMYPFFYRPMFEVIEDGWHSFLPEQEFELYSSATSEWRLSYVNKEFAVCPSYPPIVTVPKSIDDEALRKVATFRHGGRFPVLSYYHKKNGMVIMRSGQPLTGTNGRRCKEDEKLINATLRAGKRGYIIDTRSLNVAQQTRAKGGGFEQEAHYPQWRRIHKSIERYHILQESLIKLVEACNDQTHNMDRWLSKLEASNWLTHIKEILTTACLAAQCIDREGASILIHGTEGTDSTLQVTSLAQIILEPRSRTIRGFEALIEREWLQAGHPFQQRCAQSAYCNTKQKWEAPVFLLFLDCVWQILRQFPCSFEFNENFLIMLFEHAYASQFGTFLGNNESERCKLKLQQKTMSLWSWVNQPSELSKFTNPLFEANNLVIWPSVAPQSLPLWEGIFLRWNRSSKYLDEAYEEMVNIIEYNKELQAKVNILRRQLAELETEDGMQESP
UniProt Q9UKX2, whole entry, looked up: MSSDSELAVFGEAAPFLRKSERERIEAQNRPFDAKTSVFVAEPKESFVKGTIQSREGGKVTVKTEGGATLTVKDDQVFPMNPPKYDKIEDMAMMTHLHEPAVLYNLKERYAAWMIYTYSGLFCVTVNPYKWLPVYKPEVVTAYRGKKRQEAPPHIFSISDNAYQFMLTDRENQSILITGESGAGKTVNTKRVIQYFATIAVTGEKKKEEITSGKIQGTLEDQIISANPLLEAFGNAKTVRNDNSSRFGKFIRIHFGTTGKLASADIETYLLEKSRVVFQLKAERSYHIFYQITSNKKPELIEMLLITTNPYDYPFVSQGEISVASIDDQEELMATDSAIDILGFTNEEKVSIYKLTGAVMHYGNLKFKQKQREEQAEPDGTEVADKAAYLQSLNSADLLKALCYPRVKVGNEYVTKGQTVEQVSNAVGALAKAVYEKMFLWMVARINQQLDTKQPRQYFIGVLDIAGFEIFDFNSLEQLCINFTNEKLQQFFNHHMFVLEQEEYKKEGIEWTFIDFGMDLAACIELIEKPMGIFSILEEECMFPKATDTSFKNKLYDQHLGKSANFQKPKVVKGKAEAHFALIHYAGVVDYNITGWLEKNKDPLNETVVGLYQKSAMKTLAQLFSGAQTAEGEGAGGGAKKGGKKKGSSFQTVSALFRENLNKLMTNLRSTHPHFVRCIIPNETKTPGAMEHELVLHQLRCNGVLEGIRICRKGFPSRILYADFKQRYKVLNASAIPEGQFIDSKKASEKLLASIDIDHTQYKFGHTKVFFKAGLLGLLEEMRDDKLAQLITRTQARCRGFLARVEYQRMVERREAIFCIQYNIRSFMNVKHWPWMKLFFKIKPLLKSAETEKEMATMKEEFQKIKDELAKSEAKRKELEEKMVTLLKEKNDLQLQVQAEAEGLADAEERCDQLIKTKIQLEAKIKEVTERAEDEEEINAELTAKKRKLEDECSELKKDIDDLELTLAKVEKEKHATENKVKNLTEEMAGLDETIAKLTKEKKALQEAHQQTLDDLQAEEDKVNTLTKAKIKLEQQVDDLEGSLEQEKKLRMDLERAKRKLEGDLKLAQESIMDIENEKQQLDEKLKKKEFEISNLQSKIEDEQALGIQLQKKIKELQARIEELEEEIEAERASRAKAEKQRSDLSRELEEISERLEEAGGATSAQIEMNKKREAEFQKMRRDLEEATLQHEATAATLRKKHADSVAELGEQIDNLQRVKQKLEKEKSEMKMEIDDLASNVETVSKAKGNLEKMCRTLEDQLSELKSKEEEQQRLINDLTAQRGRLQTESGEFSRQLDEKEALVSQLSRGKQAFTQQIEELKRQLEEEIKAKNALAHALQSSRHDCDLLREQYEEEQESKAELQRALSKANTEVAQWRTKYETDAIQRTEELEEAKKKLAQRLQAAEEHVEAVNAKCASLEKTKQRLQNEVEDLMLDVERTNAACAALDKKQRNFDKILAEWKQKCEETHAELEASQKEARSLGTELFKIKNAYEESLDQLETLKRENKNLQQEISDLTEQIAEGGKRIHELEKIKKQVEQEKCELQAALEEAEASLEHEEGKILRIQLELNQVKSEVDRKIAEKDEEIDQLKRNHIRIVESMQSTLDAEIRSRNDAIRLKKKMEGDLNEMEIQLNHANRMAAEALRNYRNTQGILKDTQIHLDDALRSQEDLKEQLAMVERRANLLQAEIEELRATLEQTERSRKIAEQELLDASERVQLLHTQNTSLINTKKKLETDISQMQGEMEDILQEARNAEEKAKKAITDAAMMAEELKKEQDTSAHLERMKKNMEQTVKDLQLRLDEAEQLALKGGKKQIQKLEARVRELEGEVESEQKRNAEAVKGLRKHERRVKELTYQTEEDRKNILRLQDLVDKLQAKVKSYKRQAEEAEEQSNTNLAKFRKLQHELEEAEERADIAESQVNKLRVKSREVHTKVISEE
UniProt Q68DK7: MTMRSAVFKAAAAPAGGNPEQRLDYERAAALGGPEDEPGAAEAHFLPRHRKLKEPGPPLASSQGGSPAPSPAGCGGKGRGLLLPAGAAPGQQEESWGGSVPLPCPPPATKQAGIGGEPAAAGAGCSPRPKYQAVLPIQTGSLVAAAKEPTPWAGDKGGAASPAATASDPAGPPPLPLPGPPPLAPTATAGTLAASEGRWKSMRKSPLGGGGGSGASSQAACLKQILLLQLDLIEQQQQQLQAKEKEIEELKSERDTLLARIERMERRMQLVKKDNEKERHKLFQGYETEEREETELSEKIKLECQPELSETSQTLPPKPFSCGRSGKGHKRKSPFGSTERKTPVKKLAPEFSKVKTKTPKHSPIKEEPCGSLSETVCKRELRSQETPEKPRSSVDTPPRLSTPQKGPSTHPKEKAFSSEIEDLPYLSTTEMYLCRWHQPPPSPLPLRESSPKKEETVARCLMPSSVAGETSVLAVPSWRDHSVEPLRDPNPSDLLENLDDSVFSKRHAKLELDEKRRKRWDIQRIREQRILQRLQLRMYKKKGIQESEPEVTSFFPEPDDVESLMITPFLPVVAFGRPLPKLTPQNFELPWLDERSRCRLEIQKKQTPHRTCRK
UniProt Q13126: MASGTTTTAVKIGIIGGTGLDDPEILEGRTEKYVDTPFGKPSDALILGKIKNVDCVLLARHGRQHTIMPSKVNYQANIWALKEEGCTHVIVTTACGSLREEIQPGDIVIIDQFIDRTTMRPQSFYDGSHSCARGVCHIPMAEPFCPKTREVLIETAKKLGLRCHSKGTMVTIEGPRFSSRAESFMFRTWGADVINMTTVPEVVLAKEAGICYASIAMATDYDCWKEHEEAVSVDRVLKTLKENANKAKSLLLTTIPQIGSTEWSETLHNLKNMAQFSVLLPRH
UniProt Q9UJ68: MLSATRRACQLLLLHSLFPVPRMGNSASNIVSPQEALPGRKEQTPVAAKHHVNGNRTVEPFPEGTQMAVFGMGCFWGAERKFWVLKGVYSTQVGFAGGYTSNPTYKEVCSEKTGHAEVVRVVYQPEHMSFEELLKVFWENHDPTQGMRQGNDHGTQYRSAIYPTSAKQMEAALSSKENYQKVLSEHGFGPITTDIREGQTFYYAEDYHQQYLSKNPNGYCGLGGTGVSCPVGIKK
UniProt Q9BT17: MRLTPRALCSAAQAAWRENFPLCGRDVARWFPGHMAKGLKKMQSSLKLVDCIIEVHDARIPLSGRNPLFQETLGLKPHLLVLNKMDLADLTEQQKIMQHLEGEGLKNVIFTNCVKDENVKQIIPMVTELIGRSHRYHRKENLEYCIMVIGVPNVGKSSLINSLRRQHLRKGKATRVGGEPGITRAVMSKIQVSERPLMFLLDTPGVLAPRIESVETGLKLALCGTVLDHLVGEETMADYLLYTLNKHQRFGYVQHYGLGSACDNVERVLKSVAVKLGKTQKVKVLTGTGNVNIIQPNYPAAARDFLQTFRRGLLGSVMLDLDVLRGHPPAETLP

Target | log2 fold change
MYH15 (UniProt Q9Y2K3) | inactive: -0.063
MTFMT (UniProt Q96DP5) | inactive: -0.007
MYBBP1A isoform 2 (UniProt Q9BQG0) | inactive: 0.384
MYO18B isoform 3 (UniProt Q8IUG5) | inactive: 0.262
MYL3 (UniProt P08590) | inactive: 0.132
MRPS16 (UniProt Q9Y3D3) | inactive: 0.084
MTRES1 (UniProt Q9P0P8) | inactive: 0.052
MTRF1L (UniProt Q9UGC7) | inactive: 0.053
MT1L (UniProt Q93083) | inactive: -0.009
MYH3 (UniProt P11055) | inactive: 0.234
MT-ATP8 (UniProt P03928) | inactive: 0.102
MTMR9 (UniProt Q96QG7) | inactive: -0.018
MYH4 (UniProt Q9Y623) | inactive: 0.689
MVP (UniProt Q14764) | inactive: 1.25
MYH2 (UniProt Q9UKX2) | inactive: 0.597
MT-CO1 (UniProt P00395) | inactive: -0.074
MTHFD1L (UniProt B7ZM99) | inactive: -0.104
MSL1 (UniProt Q68DK7) | inactive: -0.042

Compound: CNc1nc(-c2ccc3c(N)n[nH]c3c2)cc(N2C[C@@H](C(=O)NC3CCCCC3)CC[C@H]2C)n1
Assay: as above
Outline: as §1

Target | log2 fold change
MYBBP1A isoform 2 (UniProt Q9BQG0) | inactive: 0.069
MTHFSD (UniProt Q2M296) | inactive: 0.034
MYL3 (UniProt P08590) | inactive: 0.035
MYO9A isoform 4 (UniProt B2RTY4) | inactive: 0.038
MTRF1L (UniProt Q9UGC7) | inactive: -0.004
MT1L (UniProt Q93083) | inactive: 0.096
MTAP isoform 2 (UniProt Q13126) | inactive: 0.007
MT-ND2 (UniProt P03891) | inactive: -0.295
MTMR9 (UniProt Q96QG7) | inactive: 0.025
MSRA (UniProt Q9UJ68) | inactive: 0.079
MYO19 (UniProt Q96H55) | inactive: 0.09
MYH2 (UniProt Q9UKX2) | inactive: 0.063
MTG1 (UniProt Q9BT17) | inactive: 0.025
MTHFD1L (UniProt B7ZM99) | inactive: 0.06
MSL1 (UniProt Q68DK7) | inactive: 0.04
MYH6 (UniProt P13533) | inactive: -0.012

Compound: COC(=O)N[C@@H](C)CNc1nccc(-c2cn(C(C)C)nc2-c2cc(Cl)cc(NS(C)(=O)=O)c2F)n1 [encorafenib]
Assay: as above
Outline: as §1

Target | log2 fold change
MYH15 (UniProt Q9Y2K3) | inactive: -0.02
MTFMT (UniProt Q96DP5) | inactive: 0
MYBBP1A isoform 2 (UniProt Q9BQG0) | inactive: 0.615
MYO18B isoform 3 (UniProt Q8IUG5) | inactive: -0.023
MYL3 (UniProt P08590) | inactive: 0.114
MRPS16 (UniProt Q9Y3D3) | inactive: 0.138
MTRES1 (UniProt Q9P0P8) | inactive: -0.171
MTRF1L (UniProt Q9UGC7) | inactive: -0.102
MT1L (UniProt Q93083) | inactive: 0.066
MYH3 (UniProt P11055) | inactive: -0.25
MT-ATP8 (UniProt P03928) | inactive: -0.153
MTMR9 (UniProt Q96QG7) | inactive: 0.049
MYH4 (UniProt Q9Y623) | inactive: -1.27
MVP (UniProt Q14764) | inactive: -0.698
MYH2 (UniProt Q9UKX2) | inactive: -1.33
MT-CO1 (UniProt P00395) | inactive: -0.029
MTHFD1L (UniProt B7ZM99) | inactive: -0.118
MSL1 (UniProt Q68DK7) | inactive: -0.088

Compound: COC(=O)[C@H](CCSC)NC(=O)C1=C(C=C(C=C1)NC[C@H](CS)N)C2=CC=CC=C2
Assay: as above
Outline: as §1

Target | log2 fold change
MTFMT (UniProt Q96DP5) | inactive: -0.179
MTSS1 isoform 5 (UniProt O43312) | inactive: -0.089
MTURN (UniProt Q8N3F0) | inactive: 0.06
MRPS16 (UniProt Q9Y3D3) | inactive: 0
MYO9A isoform 4 (UniProt B2RTY4) | inactive: -0.006
MTRF1L (UniProt Q9UGC7) | inactive: -0.052
MYD88 isoform 6 (UniProt Q99836) | inactive: -0.02
MT-ND2 (UniProt P03891) | inactive: 0.085
MTMR9 (UniProt Q96QG7) | inactive: -0.008
MXRA8 isoform 2 (UniProt Q9BRK3) | inactive: 0.105
MYO19 (UniProt Q96H55) | inactive: 0.103
MTG1 (UniProt Q9BT17) | inactive: 0
MT-CO1 (UniProt P00395) | inactive: 0.031
MYH16 (UniProt Q9H6N6) | inactive: -0.171
MTHFD1L (UniProt B7ZM99) | inactive: 0.002
MYO1B (UniProt O43795) | inactive: 0.181
MSL1 (UniProt Q68DK7) | inactive: -0.017

From the supplement of paper PMC10849652
